The list is a part of this screen's results and no random one: it gathers some chemical classes. Not every dose and run of a compound is shown. T/C: endpoint of the treated group in % of that of the vehicle group. Some entries give survivors of the animals treated and no T/C: the source holds a T/C of zero for them, seemingly a mark for toxic or unscored doses. Some survivor counts are full or nearly so, which does not show that the dose was tolerated: survival well below the control is almost never listed, so the zero probably covers shortened survival too. Survivors were counted at the toxicity check, usually on the fifth day, unless a day is given; later deaths do not show. Schedule codes are those of the source, taken here to give the interval after Q, in days (D) or hours (H), and the number of doses after X. Some schedules carry Z or #; the key to these is not given. Some entries hold several experiments; the results are listed from low to high. Some complexes appear as separate parts, the way the source draws them; their charges need not add up. Where survival is the endpoint, this PubChem deposit counts one and a half times the control or more as active, and values a quarter to a half above the control carry no call in these data; other NCI protocols may use other cut-offs. Some T/C values carry the count of animals alive at the toxicity check (mostly the fifth day); without a count or a note in brackets, all were alive then.
Tested on: L1210 leukemia ip in BDF1 mice, survival T/C
Test: NCI In Vivo Anticancer Drug Screen. Data for tumor model L1210 Leukemia (intraperitoneal) in B6D2F1 (BDF1) mice
Settings: T/C endpoint: mean survival time, higher T/C = longer survival
[1] = dose: 50.0 mg/kg/injection, schedule: Q01DX001 (ip), vehicle: saline
[2] = dose: 100.0 mg/kg/injection, schedule: Q01DX001 (ip), vehicle: saline
[3] = dose: 200.0 mg/kg/injection, schedule: Q01DX001 (ip), vehicle: saline

## S=P(Cl)(Oc1ccccc1)c1ccccc1 (stereo not given)
dose: 25.0 mg/kg/injection, schedule: Q01DX009 (ip), vehicle: Klucel (hydroxypropylcellulose) (HPC)
  T/C: 101 % of control
dose: 50.0 mg/kg/injection, schedule: Q01DX009 (ip), vehicle: Klucel (hydroxypropylcellulose) (HPC)
  T/C: 97 % of control
dose: 100.0 mg/kg/injection, schedule: Q01DX009 (ip), vehicle: Klucel (hydroxypropylcellulose) (HPC)
  T/C: 90 and 92 % of control
dose: 100.0 mg/kg/injection, schedule: Q04DX002 (ip), vehicle: Klucel (hydroxypropylcellulose) (HPC)
  T/C: 113 % of control
dose: 200.0 mg/kg/injection, schedule: Q01DX009 (ip), vehicle: Klucel (hydroxypropylcellulose) (HPC)
  survivor count: 1 of 3
dose: 200.0 mg/kg/injection, schedule: Q04DX002 (ip), vehicle: Klucel (hydroxypropylcellulose) (HPC)
  T/C: 100 % of control
dose: 400.0 mg/kg/injection, schedule: Q01DX009 (ip), vehicle: Klucel (hydroxypropylcellulose) (HPC)
  survivor count: 0 of 3
dose: 400.0 mg/kg/injection, schedule: Q04DX002 (ip), vehicle: Klucel (hydroxypropylcellulose) (HPC)
  T/C: 107 % of control

## NC1CCCCC1.O=P(O)(Oc1ccccc1)N(CCCl)CCCl
dose: 62.5 mg/kg/injection, schedule: Q01DX010 (ip), vehicle: saline
  T/C: 98 % of control
dose: 125.0 mg/kg/injection, schedule: Q01DX010 (ip), vehicle: saline
  T/C: 89 % of control [5 of 6 alive]
dose: 250.0 mg/kg/injection, schedule: Q01DX010 (ip), vehicle: saline
  T/C: 104 % of control

## CN(C)P1OCCO1
dose: 100.0 mg/kg/injection, schedule: Q04DX002 (ip), vehicle: saline with Tween-80
  T/C: 122 % of control
dose: 200.0 mg/kg/injection, schedule: Q04DX002 (ip), vehicle: saline with Tween-80
  T/C: 94 % of control
dose: 400.0 mg/kg/injection, schedule: Q04DX002 (ip), vehicle: saline with Tween-80
  T/C: 102 % of control

## Clc1nc(Cl)nc(NCCBr)n1
dose: 75.0 mg/kg/injection, schedule: Q01DX001 (ip), vehicle: carboxymethylcellulose (CMC)
  T/C: 102 % of control
dose: 150.0 mg/kg/injection, schedule: Q01DX001 (ip), vehicle: carboxymethylcellulose (CMC)
  T/C: 106 % of control
dose: 300.0 mg/kg/injection, schedule: Q01DX001 (ip), vehicle: carboxymethylcellulose (CMC)
  T/C: 98 % of control

## O=P1(N(CCCl)CCCl)OCCCN1CCCl (stereo not given)
dose: 12.5 mg/kg/injection, schedule: Q01DX001 (ip), vehicle: saline
  T/C: 106 % of control
dose: 25.0 mg/kg/injection, schedule: Q01DX001 (ip), vehicle: saline
  T/C: 120 % of control
[1]
  T/C: 125 % of control
[2]
  T/C: 194 % of control
[3]
  T/C: 212 % of control

## F[P-](F)(F)(F)(F)F.c1ccc([P+]2(c3ccccc3)CCc3ccccc3C2)cc1
dose: 25.0 mg/kg/injection, schedule: Q04DX003 (ip), vehicle: saline with Tween-80
  survivor count: 0 of 3
dose: 50.0 mg/kg/injection, schedule: Q04DX003 (ip), vehicle: saline with Tween-80
  survivor count: 0 of 3
dose: 100.0 mg/kg/injection, schedule: Q04DX003 (ip), vehicle: saline with Tween-80
  survivor count: 0 of 3

## CC1=NCC[N-]CCC[N-]CCN=C(C)[CH-]1.F[P-](F)(F)(F)(F)F.[Ni+2]
dose: 12.5 mg/kg/injection, schedule: Q04DX002 (ip), vehicle: other
  T/C: 94 % of control
dose: 25.0 mg/kg/injection, schedule: Q04DX002 (ip), vehicle: other
  T/C: 105 % of control
dose: 50.0 mg/kg/injection, schedule: Q04DX002 (ip), vehicle: other
  T/C: 94 % of control
dose: 100.0 mg/kg/injection, schedule: Q04DX002 (ip), vehicle: other
  survivor count: 1 of 3
dose: 200.0 mg/kg/injection, schedule: Q04DX002 (ip), vehicle: other
  survivor count: 0 of 3
dose: 400.0 mg/kg/injection, schedule: Q04DX002 (ip), vehicle: other
  survivor count: 1 of 3

## ClCCN(CCCl)B1SCCS1
dose: 2.5 mg/kg/injection, schedule: Q01DX001 (ip), vehicle: carboxymethylcellulose (CMC)
  T/C: 98 % of control
dose: 2.5 mg/kg/injection, schedule: Q01DX001 (sc), vehicle: olive oil, sesame oil, peanut oil
  T/C: 98 % of control
dose: 5.0 mg/kg/injection, schedule: Q01DX001 (ip), vehicle: carboxymethylcellulose (CMC)
  T/C: 98 % of control
dose: 5.0 mg/kg/injection, schedule: Q01DX001 (sc), vehicle: olive oil, sesame oil, peanut oil
  T/C: 98 % of control
dose: 10.0 mg/kg/injection, schedule: Q01DX001 (ip), vehicle: carboxymethylcellulose (CMC)
  T/C: 97 % of control
dose: 10.0 mg/kg/injection, schedule: Q01DX001 (sc), vehicle: olive oil, sesame oil, peanut oil
  T/C: 97 % of control
dose: 20.0 mg/kg/injection, schedule: Q01DX001 (ip), vehicle: carboxymethylcellulose (CMC)
  T/C: 110 % of control
dose: 20.0 mg/kg/injection, schedule: Q01DX001 (sc), vehicle: olive oil, sesame oil, peanut oil
  T/C: 101 % of control

## Fc1cccc(CNCCCl)c1
[1]
  T/C: 97 % of control
[2]
  T/C: 100 % of control
[3]
  T/C: 103 % of control
dose: 400.0 mg/kg/injection, schedule: Q01DX001 (ip), vehicle: saline
  T/C: 103 % of control

## O=[As](O)(O)c1ccc(Cl)cc1
dose: 6.25 mg/kg/injection, schedule: Q01DX009 (ip), vehicle: saline with Tween-80
  T/C: 96 % of control [5 of 6 alive]
dose: 12.5 mg/kg/injection, schedule: Q01DX009 (ip), vehicle: saline with Tween-80
  survivor count: 0 of 6
dose: 25.0 mg/kg/injection, schedule: Q01DX009 (ip), vehicle: saline with Tween-80
  survivor count: 0 of 6

## CC[C@@H](C)[C@@H]1NC(=O)/C(=C(\C)O)C1=O.c1ccc(CNCCNCc2ccccc2)cc1
dose: 5.0 mg/kg/injection, schedule: Q01DX Z (ip), vehicle: carboxymethylcellulose (CMC)
  T/C: 102 % of control
dose: 10.0 mg/kg/injection, schedule: Q01DX Z (ip), vehicle: carboxymethylcellulose (CMC)
  T/C: 100 % of control
dose: 20.0 mg/kg/injection, schedule: Q01DX Z (ip), vehicle: carboxymethylcellulose (CMC)
  T/C: 107 % of control
dose: 40.0 mg/kg/injection, schedule: Q01DX Z (ip), vehicle: carboxymethylcellulose (CMC)
  T/C: 98 and 109 % of control
dose: 80.0 mg/kg/injection, schedule: Q01DX Z (ip), vehicle: carboxymethylcellulose (CMC)
  T/C: 95 % of control
dose: 160.0 mg/kg/injection, schedule: Q01DX Z (ip), vehicle: carboxymethylcellulose (CMC)
  T/C: 106 % of control
dose: 320.0 mg/kg/injection, schedule: Q01DX015 (ip), vehicle: carboxymethylcellulose (CMC)
  survivor count: 0 of 6
dose: 640.0 mg/kg/injection, schedule: Q01DX015 (ip), vehicle: carboxymethylcellulose (CMC)
  survivor count: 0 of 6

## CCNP(=O)(O)N(CCCl)CCCl.NC1CCCCC1
dose: 10.0 mg/kg/injection, schedule: Q01DX Z (ip), vehicle: saline
  T/C: 109 % of control
dose: 30.0 mg/kg/injection, schedule: Q01DX Z (ip), vehicle: saline
  T/C: 129 % of control
dose: 100.0 mg/kg/injection, schedule: Q01DX Z (ip), vehicle: saline
  T/C: 157 % of control
dose: 300.0 mg/kg/injection, schedule: Q01DX Z (ip), vehicle: saline
  survivor count: 6 of 6

## CC[P+]1(c2ccccc2)CCC(C)(C)c2ccccc21.F[P-](F)(F)(F)(F)F (stereo not given)
dose: 6.25 mg/kg/injection, schedule: Q04DX003 (ip), vehicle: Klucel (hydroxypropylcellulose) (HPC)
  T/C: 96 % of control
dose: 12.5 mg/kg/injection, schedule: Q04DX003 (ip), vehicle: Klucel (hydroxypropylcellulose) (HPC)
  T/C: 96 % of control
dose: 25.0 mg/kg/injection, schedule: Q04DX003 (ip), vehicle: Klucel (hydroxypropylcellulose) (HPC)
  survivor count: 0 of 6
dose: 50.0 mg/kg/injection, schedule: Q04DX003 (ip), vehicle: Klucel (hydroxypropylcellulose) (HPC)
  survivor count: 0 of 6 and 3 of 6
dose: 100.0 mg/kg/injection, schedule: Q04DX003 (ip), vehicle: Klucel (hydroxypropylcellulose) (HPC)
  survivor count: 0 of 6
dose: 200.0 mg/kg/injection, schedule: Q04DX003 (ip), vehicle: Klucel (hydroxypropylcellulose) (HPC)
  survivor count: 0 of 6
dose: 400.0 mg/kg/injection, schedule: Q04DX003 (ip), vehicle: Klucel (hydroxypropylcellulose) (HPC)
  survivor count: 0 of 6

Reference: PubChem BioAssay AID248 (DTP/NCI, 2004)
